Laboratory results reported in the supplement of paper PMC10849652.
Some of the results follow.

Chains of the proteins cited; added tags and fusions are not shown. Lines headed by an entry give the natural chain unless they say otherwise; changes in a name come on top.
UniProt Q9UJW0, whole entry, looked up: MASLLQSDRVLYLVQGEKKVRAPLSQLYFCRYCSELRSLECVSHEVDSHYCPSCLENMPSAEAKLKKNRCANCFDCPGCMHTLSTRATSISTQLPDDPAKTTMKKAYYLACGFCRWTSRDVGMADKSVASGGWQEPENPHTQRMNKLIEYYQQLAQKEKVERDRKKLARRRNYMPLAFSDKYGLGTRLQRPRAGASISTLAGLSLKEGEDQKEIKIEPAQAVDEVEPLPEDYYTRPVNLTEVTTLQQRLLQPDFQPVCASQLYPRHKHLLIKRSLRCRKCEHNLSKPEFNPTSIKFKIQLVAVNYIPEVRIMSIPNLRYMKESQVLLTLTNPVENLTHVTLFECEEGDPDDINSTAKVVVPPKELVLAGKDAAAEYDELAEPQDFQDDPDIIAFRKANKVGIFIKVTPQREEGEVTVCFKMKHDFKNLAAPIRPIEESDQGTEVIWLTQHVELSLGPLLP
UniProt Q7L576: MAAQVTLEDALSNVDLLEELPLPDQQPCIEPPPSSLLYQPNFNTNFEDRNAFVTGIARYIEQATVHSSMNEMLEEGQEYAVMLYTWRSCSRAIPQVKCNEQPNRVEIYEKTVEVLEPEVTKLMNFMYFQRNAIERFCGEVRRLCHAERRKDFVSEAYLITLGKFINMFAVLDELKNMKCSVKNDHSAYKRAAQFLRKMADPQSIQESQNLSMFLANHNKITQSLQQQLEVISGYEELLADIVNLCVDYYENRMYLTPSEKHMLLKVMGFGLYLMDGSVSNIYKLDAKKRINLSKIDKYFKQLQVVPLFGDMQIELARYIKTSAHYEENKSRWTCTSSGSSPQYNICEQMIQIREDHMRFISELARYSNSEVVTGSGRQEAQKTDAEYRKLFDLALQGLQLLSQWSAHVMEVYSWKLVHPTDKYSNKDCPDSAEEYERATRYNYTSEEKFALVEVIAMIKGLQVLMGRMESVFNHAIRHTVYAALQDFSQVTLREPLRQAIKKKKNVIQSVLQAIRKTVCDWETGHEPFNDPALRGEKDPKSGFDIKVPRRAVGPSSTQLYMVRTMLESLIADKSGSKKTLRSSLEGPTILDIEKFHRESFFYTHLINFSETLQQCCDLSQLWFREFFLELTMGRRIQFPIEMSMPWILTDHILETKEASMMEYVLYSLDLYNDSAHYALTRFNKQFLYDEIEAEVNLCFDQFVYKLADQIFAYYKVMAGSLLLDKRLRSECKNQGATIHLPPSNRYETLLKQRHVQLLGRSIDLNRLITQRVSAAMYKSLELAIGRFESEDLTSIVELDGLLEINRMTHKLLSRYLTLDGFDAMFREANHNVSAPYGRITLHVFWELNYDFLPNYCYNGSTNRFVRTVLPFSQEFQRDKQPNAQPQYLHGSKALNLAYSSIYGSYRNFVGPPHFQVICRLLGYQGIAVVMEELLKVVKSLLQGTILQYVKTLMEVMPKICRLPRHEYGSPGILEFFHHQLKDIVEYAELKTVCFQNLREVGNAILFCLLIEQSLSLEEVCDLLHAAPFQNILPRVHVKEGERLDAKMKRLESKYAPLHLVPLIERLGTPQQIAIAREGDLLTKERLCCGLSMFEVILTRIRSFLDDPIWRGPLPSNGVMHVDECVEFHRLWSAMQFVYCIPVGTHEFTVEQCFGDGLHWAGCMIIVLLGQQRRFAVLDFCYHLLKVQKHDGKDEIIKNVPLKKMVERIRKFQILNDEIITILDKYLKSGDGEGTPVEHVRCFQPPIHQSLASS
UniProt Q9BQA9: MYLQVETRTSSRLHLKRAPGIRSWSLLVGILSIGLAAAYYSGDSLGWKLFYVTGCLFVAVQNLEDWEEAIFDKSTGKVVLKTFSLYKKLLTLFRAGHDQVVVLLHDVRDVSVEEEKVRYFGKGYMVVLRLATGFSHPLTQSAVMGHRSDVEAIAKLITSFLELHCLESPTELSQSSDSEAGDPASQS
UniProt Q14247: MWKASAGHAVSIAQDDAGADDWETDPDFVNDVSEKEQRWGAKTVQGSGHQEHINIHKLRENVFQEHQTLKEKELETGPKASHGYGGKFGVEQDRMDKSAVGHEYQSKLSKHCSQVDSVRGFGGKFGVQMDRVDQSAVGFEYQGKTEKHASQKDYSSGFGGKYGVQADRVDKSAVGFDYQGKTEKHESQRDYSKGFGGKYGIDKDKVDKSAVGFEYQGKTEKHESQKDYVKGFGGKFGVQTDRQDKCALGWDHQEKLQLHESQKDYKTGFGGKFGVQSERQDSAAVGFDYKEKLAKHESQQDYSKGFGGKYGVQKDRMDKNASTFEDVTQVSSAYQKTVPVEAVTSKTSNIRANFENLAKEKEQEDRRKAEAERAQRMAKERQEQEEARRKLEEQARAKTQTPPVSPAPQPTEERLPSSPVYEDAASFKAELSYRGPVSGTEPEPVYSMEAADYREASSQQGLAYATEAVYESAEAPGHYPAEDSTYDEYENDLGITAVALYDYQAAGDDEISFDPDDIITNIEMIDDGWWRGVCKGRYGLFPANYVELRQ
UniProt Q5QP82: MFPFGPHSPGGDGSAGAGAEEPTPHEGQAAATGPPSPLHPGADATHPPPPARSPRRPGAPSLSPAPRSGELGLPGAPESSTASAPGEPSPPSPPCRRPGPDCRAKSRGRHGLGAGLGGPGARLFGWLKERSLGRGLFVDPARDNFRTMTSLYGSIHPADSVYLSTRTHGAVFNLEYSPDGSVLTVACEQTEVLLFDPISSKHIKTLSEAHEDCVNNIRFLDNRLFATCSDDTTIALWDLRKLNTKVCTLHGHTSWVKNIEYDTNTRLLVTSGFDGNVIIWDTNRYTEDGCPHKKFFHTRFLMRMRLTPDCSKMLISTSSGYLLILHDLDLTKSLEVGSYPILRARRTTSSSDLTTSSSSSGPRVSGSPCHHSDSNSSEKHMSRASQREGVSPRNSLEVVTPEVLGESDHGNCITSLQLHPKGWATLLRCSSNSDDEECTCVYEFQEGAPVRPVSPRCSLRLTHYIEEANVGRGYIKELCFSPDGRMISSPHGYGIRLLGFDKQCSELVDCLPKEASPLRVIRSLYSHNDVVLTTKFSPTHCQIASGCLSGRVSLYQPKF
UniProt Q16850: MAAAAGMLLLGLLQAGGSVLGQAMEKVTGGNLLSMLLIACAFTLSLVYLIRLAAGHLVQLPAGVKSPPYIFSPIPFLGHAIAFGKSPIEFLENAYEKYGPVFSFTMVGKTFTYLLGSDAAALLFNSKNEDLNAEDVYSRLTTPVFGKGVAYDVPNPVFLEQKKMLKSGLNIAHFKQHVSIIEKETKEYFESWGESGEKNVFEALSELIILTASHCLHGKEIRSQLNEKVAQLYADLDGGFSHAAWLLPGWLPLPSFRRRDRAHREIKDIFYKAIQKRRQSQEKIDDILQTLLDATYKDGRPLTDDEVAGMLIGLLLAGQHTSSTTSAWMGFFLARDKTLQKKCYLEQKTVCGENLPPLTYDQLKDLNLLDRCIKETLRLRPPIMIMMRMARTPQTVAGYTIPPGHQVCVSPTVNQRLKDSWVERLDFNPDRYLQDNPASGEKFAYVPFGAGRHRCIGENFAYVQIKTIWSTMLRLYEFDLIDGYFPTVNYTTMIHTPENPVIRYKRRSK
UniProt Q53TN4: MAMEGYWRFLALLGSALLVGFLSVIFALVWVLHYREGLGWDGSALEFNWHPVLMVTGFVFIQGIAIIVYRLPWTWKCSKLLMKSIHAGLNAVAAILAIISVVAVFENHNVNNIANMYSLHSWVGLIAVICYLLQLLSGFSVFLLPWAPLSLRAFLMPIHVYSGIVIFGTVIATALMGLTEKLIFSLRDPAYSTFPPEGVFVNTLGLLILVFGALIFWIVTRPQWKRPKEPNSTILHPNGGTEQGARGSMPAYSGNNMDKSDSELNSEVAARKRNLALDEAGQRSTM
UniProt Q12996: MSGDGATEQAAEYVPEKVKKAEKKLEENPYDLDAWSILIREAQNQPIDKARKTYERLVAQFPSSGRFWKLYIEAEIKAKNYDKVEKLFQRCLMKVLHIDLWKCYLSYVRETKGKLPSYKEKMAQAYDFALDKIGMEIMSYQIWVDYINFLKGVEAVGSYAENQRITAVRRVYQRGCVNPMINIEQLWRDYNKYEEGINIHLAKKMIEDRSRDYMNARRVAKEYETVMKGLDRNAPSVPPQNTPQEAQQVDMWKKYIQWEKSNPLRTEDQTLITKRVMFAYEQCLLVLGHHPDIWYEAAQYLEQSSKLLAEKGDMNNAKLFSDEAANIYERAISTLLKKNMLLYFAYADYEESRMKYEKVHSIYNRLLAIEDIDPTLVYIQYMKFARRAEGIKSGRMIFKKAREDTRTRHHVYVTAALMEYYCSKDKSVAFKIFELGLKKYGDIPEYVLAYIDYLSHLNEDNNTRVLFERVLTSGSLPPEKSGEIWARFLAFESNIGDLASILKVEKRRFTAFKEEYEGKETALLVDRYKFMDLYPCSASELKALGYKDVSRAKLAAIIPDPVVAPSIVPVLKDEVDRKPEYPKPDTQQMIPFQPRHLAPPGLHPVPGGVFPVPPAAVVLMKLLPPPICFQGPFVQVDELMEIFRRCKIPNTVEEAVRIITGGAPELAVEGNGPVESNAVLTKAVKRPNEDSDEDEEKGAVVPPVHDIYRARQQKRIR
UniProt Q14203, whole entry, looked up: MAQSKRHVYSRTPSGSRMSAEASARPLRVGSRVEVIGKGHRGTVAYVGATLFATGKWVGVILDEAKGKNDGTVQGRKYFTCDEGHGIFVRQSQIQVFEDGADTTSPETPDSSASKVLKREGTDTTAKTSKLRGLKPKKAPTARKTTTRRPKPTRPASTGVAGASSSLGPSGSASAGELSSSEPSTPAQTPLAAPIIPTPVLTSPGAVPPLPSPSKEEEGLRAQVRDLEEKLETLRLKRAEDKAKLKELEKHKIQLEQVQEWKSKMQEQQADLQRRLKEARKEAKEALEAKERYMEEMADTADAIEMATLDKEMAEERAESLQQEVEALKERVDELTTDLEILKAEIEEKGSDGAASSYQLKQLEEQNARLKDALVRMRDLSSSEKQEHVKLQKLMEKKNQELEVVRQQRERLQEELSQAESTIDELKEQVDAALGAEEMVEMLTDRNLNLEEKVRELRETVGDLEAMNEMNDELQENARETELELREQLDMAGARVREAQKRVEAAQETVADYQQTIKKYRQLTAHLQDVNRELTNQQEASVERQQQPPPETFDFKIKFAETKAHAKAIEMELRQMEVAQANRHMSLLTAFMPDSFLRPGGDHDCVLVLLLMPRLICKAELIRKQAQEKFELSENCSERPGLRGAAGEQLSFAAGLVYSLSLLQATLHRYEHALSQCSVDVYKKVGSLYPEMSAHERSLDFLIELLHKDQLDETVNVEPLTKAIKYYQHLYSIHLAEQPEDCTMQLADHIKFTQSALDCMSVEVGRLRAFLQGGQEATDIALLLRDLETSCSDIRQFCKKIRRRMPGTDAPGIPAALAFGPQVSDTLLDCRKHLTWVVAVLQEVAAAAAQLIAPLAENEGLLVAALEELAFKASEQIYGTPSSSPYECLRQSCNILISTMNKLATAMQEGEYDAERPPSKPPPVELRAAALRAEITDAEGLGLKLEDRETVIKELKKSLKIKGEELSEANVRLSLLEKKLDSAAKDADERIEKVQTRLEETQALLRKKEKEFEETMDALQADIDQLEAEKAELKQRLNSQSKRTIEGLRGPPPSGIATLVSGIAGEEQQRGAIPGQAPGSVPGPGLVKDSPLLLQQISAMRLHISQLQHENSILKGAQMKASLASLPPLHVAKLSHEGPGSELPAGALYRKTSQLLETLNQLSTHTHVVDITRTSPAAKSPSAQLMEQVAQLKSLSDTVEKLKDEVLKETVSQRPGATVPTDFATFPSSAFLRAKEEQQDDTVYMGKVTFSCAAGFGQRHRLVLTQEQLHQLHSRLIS
UniProt P11182, whole entry, looked up: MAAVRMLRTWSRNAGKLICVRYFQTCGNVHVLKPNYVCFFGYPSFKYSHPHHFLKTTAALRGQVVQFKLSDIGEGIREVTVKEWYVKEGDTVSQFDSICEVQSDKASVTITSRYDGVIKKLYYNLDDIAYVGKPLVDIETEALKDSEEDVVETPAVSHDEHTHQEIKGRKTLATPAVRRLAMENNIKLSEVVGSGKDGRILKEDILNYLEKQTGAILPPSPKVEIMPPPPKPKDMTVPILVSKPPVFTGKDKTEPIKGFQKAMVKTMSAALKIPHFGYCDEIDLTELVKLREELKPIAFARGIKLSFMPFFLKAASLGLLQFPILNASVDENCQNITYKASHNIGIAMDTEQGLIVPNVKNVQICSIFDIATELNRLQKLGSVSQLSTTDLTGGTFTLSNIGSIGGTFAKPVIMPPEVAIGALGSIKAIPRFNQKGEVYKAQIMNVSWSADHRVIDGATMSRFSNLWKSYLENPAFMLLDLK

Legend:
Assay in all cases: log2 fold change, soluble protein after heating vs DMSO (PISA); higher = thermal stabilisation; K562 cells, 10 uM, 30 min; active = over 0.2 and 3.5 SD of the protein, either way, in both replicates (recomputed)
[1] = compound: CC[C@@H]1C(=O)N(C)c2cnc(Nc3ccc(C(=O)NC4CCN(C)CC4)cc3OC)nc2N1C1CCCC1
How it was run: (§1)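 K562 cells at 2×10^6 cells/mL were exposed to 10 μM compound for 30 min, then aliquots were heated for 3 min across 48°C-58°C, pooled, and extracted in PBS containing 0.5% NP-40 at 4°C. The supernatant after 21,000xg for 90 min was taken as soluble protein and measured by TMTpro 16plex LC-MS/MS with channel sums equalised. Thermal stability is reported relative to control samples, with values from duplicates. Fold changes are given on a log2 scale.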

volasertib = compound: CC[C@@H]1C(=O)N(C)c2cnc(Nc3ccc(C(=O)N[C@H]4CC[C@H](N5CCN(CC6CC6)CC5)CC4)cc3OC)nc2N1C(C)C [volasertib]
How it was run: as §1

[2] = compound: CC[C@H](C)N1C=C(C2=C(C=C(C=C21)C3=CN=C(C=C3)N4CCNCC4)C(=O)NCC5=C(C=C(NC5=O)C)C)C
How it was run: as §1

epoxomicin = compound: CC[C@H](C)[C@@H](C(=O)N[C@@H]([C@@H](C)O)C(=O)N[C@@H](CC(C)C)C(=O)[C@]1(CO1)C)NC(=O)[C@H]([C@@H](C)CC)N(C)C(=O)C [epoxomicin]
How it was run: as §1

[3] = compound: CCn1c(C(=O)N(C2CC2)C2CC2)cc2c3c(ncn3C)c(Nc3cc(C)n(C)n3)nc21
How it was run: as §1

[4] = compound: CCn1cc(-c2ccnc3[nH]c(-c4cccc(CN(C)C)c4)cc23)c(-c2ccc(NC(=O)N(C)C)cc2)n1
How it was run: as §1

[5] = compound: CN(C)CC(=O)Nc1ccc2[nH]c(=O)c3ccccc3c2c1
How it was run: as §1

rosiglitazone = compound: CN(CCOC1=CC=C(C=C1)C[C@H]2C(=O)NC(=O)S2)C3=CC=CC=N3 (racemic) [rosiglitazone]
How it was run: as §1

[6] = compound: CN1C2=C(C3=C1C(=O)N(N=C3)CC4=CC(=CC=C4)N)SC(=C2)S(=O)C
How it was run: as §1

[7] = compound: CN1CCC(CNc2ccc3ncc(-c4cccc(OC(F)(F)F)c4)n3n2)CC1
How it was run: as §1

| Target | log2 fold change [1] | log2 fold change (volasertib) | log2 fold change [2] | log2 fold change (epoxomicin) | log2 fold change [3] | log2 fold change [4] | log2 fold change [5] | log2 fold change (rosiglitazone) | log2 fold change [6] | log2 fold change [7] |
| --- | --- | --- | --- | --- | --- | --- | --- | --- | --- | --- |
| DCTN4 (UniProt Q9UJW0) | inactive: 0.012 | inactive: -0.046 | inactive: -0.027 | inactive: 0.013 | inactive: 0.035 | inactive: 0.018 | inactive: -0.019 | inactive: -0.042 | inactive: -0.071 | inactive: 0.082 |
| CTCF (UniProt P49711) | inactive: 0.181 | inactive: 0.247 | inactive: 0.127 | inactive: -0.189 | inactive: -0.019 | inactive: 0.272 | inactive: -0.06 | inactive: -0.087 | inactive: 0.277 | inactive: 0.339 |
| CXorf56 (UniProt Q9H5V9) | inactive: -0.018 | inactive: -0.088 | inactive: 0.06 | inactive: 0.086 | inactive: -0.013 | inactive: -0.055 | inactive: 0.012 | inactive: 0.024 | inactive: 0.033 | inactive: 0.052 |
| CYFIP1 (UniProt Q7L576) | inactive: -0.011 | active: -0.233 | inactive: 0.046 | inactive: 0.02 | – | inactive: 0.011 | inactive: 0.024 | – | inactive: 0.001 | inactive: -0.034 |
| CYBC1 (UniProt Q9BQA9) | inactive: 0.017 | inactive: 0.044 | inactive: -0.049 | inactive: 0.024 | inactive: 0.058 | inactive: -0.014 | inactive: -0.083 | inactive: -0.004 | inactive: -0.015 | inactive: 0.191 |
| CTTN (UniProt Q14247) | inactive: 0.016 | inactive: -0.025 | inactive: -0.045 | inactive: -0.015 | inactive: 0.037 | inactive: -0.001 | inactive: -0.034 | inactive: -0.007 | inactive: -0.064 | inactive: 0.001 |
| CUX1 isoform 2 (UniProt Q13948) | inactive: -0.055 | inactive: -0.188 | inactive: 0 | inactive: -0.002 | – | inactive: 0.043 | inactive: 0.317 | – | inactive: 0.016 | inactive: 0.055 |
| DCAF10 (UniProt Q5QP82) | inactive: -0.003 | inactive: 0.029 | inactive: -0.038 | inactive: -0.102 | – | inactive: -0.018 | inactive: -0.043 | – | inactive: -0.026 | inactive: 0.022 |
| CYP51A1 (UniProt Q16850) | inactive: 0.019 | inactive: 0.132 | inactive: 0.052 | inactive: -0.061 | – | inactive: 0.015 | inactive: 0.015 | – | inactive: 0.072 | active: -0.331 |
| CYBRD1 (UniProt Q53TN4) | inactive: -0.023 | inactive: 0.242 | – | – | inactive: 0.173 | inactive: -0.024 | inactive: -0.147 | – | inactive: 0.125 | inactive: 0.136 |
| CSTF3 (UniProt Q12996) | inactive: 0.061 | inactive: 0.091 | inactive: -0.028 | inactive: -0.029 | – | inactive: -0.038 | inactive: -0.002 | – | inactive: -0.048 | inactive: 0.13 |
| CSRP3 (UniProt P50461) | inactive: 0.085 | inactive: 0.06 | inactive: -0.062 | – | inactive: -0.003 | inactive: 0.132 | inactive: -0.072 | inactive: 0.055 | – | inactive: -0.03 |
| DCTN1 isoform 4 (UniProt Q14203) | inactive: 0.01 | inactive: -0.1 | inactive: 0.078 | inactive: 0.02 | – | inactive: -0.024 | inactive: 0.052 | – | inactive: 0.149 | inactive: -0.096 |
| DBT (UniProt P11182) | inactive: 0.068 | inactive: 0.009 | inactive: -0.01 | inactive: -0.022 | – | inactive: -0.001 | inactive: -0.14 | – | inactive: 0.015 | inactive: 0.045 |

A second format for some results above:
Target,log2 fold change [1],log2 fold change (volasertib),log2 fold change [2],log2 fold change (epoxomicin),log2 fold change [3],log2 fold change [4],log2 fold change [5],log2 fold change (rosiglitazone),log2 fold change [6],log2 fold change [7]
CSRP3 (UniProt P50461),inactive: 0.085,inactive: 0.06,inactive: -0.062,–,inactive: -0.003,inactive: 0.132,inactive: -0.072,inactive: 0.055,–,inactive: -0.03
DCTN1 isoform 4 (UniProt Q14203),inactive: 0.01,inactive: -0.1,inactive: 0.078,inactive: 0.02,–,inactive: -0.024,inactive: 0.052,–,inactive: 0.149,inactive: -0.096
